{"source": "PubChem BioAssay AID1259425 (University of Nebraska Medical Center, 2018)", "test": "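Seek colon cancer weak points whose silencing resembles KSR1 loss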 (primary screen)", "cells": "HCT116 human colon cancer cells", "reagent": "siRNA pool against human genes, 50 nM siRNA", "measured": "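mRNA of six signature genes measured together by branched-DNA assay after 50 nM siRNA pool, blank removed, divided by geometric mean of two housekeeping genes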", "scale": "BNIP3L mRNA: higher = more BNIP3L transcript after knockdown", "note": "The whole screen tested about 14,000 reagents; below is an unselected part. Not all columns of the deposit are shown. Reagent sequences are not shown. Not given: the time to read-out."}
{"target": "ADPRHL1", "BNIP3L mRNA, set 1": 0.131}
{"target": "GTF3A", "BNIP3L mRNA, set 1": 0.12}
{"target": "MRPS25", "BNIP3L mRNA, set 1": 0.0552}
{"target": "PKD2", "BNIP3L mRNA, set 1": 0.108}
{"target": "HHLA2", "BNIP3L mRNA, set 1": 0.0599}
{"target": "AURKC", "BNIP3L mRNA, set 1": 0.221}
{"target": "NDUFS3", "BNIP3L mRNA, set 1": 0.288}

Next part, starting with the last 2 of the part before.
{"target": "AURKC", "BNIP3L mRNA, set 1": 0.221}
{"target": "NDUFS3", "BNIP3L mRNA, set 1": 0.288}
{"target": "HGF", "BNIP3L mRNA, set 1": 0.0774}
{"target": "CRYZ", "BNIP3L mRNA, set 1": 0.159}
{"target": "SPAG5", "BNIP3L mRNA, set 1": 0.121}
{"target": "GPR34", "BNIP3L mRNA, set 1": 0.13}
{"target": "CYP2C8", "BNIP3L mRNA, set 1": 0.0707}
